Test results from PubChem BioAssay AID2685 (National Center for Advancing Translational Sciences (NCATS), 2010).
The whole screen tested about 320,000 compounds, of which about 2,100 (0.66%) were called active. This list was built around the results that the source calls inconclusive (neither active nor inactive); the mix of calls is not that of the screen. Calls come from the whole dose curve; as a rule, active = well fitted inhibition curve with a large enough effect in the signal ratio, with a control signal flat (not every such curve was filed as active); inconclusive = small, poorly fitted or top-dose-only effect, or effect the other way, or a change in a side signal; inactive = flat fitted curve, though single readings scatter; the % refers to the signal ratio. Potencies beside an inconclusive call are fits to weak or partial responses and may not hold up.

Experiment: qHTS Assay for Lipid Storage Modulators in Drosophila S3 Cells
Conditions: BODIPY lipid droplet fluorescence, 18-24 h, cells fed with added oleic acid; lipid storage change, negative = inhibition: at 46.1 µM (top of the series) unless noted
Outline: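 Laser-scanning cytometry quantifies lipid droplet accumulation (500–530 nm total intensity; droplet/cell object ratio) in oleic acid-fed (400 uM added) Drosophila S3 cells treated with a concentration series. 20 uM Triacsin C defined 100% inhibition.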
% is set by controls: 0 for no effect and ±100 for the full control effect; potency is the fitted concentration of half-maximal effect.

| SMILES | lipid storage change, negative = inhibition | Potency | outcome |
| --- | --- | --- | --- |
| COc1ccccc1N(CC(=O)NCc1ccccc1C)S(=O)(=O)c1ccc(C)cc1 | inconclusive: 34.5% | – | – |
| CCN1CCN(CC#CCOc2ccccc2OC)CC1 | inconclusive: 21.3% | – | – |
| CN(CC1COCCO1)C(=O)c1cc(COc2c(F)cccc2F)on1 (centres undefined) | inconclusive: 6.58% | – | – |
| O=CN1CCN(C(=O)c2ccc([N+](=O)[O-])cc2)CC1 | – | inconclusive: 6.51 µM [falling, single point] | – |
| Cc1ccc(S(=O)(=O)NCc2ccc(C(=O)NCc3cccnc3)cc2)cc1 | inconclusive: 10.1% | – | – |
| Cc1c(NC(=O)c2ccc(C(=O)Nc3c(C)n(C)n(-c4ccccc4)c3=O)cc2)c(=O)n(-c2ccccc2)n1C | inconclusive: -3.93% | – | – |
| Cc1cccc(NC(=S)N/N=C2\CC(C)(C)Oc3ccc(O)cc32)c1 | inconclusive: -18.6% | – | – |
| CC1(C)CC(CC(=O)O)(c2ccc(F)cc2)CCO1 (centres undefined) | inconclusive: -29.5% | – | – |
| COc1ccc(CCNC(=O)C(=O)NCC2OCCN2S(=O)(=O)c2cc(F)ccc2F)cc1OC (centres undefined) | inconclusive: 33.2% | – | – |
| CCOc1ccc(N2CC(C(=O)NCc3ccco3)CC2=O)cc1 (centres undefined) | – | inconclusive: 0.116 µM [activator, full curve, poor fit] | – |
| COc1ccc(CN(C)C(=O)[C@H](Cc2ccccc2)NC(=O)c2ccco2)c(OC)c1 | – | inconclusive: 6.51 µM [falling, single point] | – |
| N#Cc1cccc(C(=O)N(CCc2ccccc2)Cc2cccs2)c1 | inconclusive: 50.6% | – | – |
| COc1ccc2nc(NC(=O)CCNC(=O)c3ccco3)sc2c1 | – | active: 8.2 µM | – |
| COc1cc(NC(=S)N2CCCC(CO)C2)cc(OC)c1 (centres undefined) | inconclusive: 0.254% | – | – |
| COC(=O)CC1(c2ccc(OC)cc2)C(=O)c2ccccc2C1=O | – | inconclusive: 4.11 µM [cytotoxic, single point] | – |
| COc1ccc(NC(=O)N(Cc2cc3cc(OC)c(OC)cc3[nH]c2=O)CC2CCCO2)cc1 (centres undefined) | inconclusive: 14.9% | – | – |
| O=C(Cn1nnc(-c2ccc3c(c2)OCO3)n1)N1CCOCC1 | inconclusive: 15.1% | – | – |
| CC(=O)Nc1ccc(Oc2cncc(Cl)c2)nc1 | inconclusive: 3.22% | – | – |
| O=C(CSc1nnc(NC2CCCCC2)s1)N1CCOCC1 | – | inconclusive: 0.411 µM [falling, full curve] | – |
| Cc1ccccc1S(=O)(=O)Nc1ncnc2ccccc12 | – | inconclusive: 29.1 µM [activator, single point] | – |
| O=C1NC(=S)S/C1=C/c1ccc(OC(=O)c2ccco2)cc1 | – | inconclusive: 6.51 µM [falling, single point] | – |
| CCCNC(=O)C1CC(=O)N(c2ccc(OCc3ccc(Cl)cc3)cc2)C1 (centres undefined) | inconclusive: -8% | – | – |
| Cc1ccc(N2CCN(/N=C/c3sccc3C)CC2)cc1 | – | inconclusive: 7.31 µM [rising, partial curve] | – |
| COc1ccc([N+](=O)[O-])cc1N(CC(=O)N1CCN(Cc2ccccc2)CC1)S(C)(=O)=O | inconclusive: 25.5% | – | – |
| CCCCCCCNC(=O)C1(CC2CC(c3cccc(Br)c3)=NO2)CCN(C(=O)C2(C)CC2)CC1 (centres undefined) | inconclusive: -14.9% | – | – |

Ordered by number of heavy atoms (largest number first): part of the list above.

| SMILES | lipid storage change, negative = inhibition | Potency | outcome |
| --- | --- | --- | --- |
| COc1ccc([N+](=O)[O-])cc1N(CC(=O)N1CCN(Cc2ccccc2)CC1)S(C)(=O)=O | inconclusive: 25.5% | – | – |
| Cc1ccc(S(=O)(=O)NCc2ccc(C(=O)NCc3cccnc3)cc2)cc1 | inconclusive: 10.1% | – | – |
| COc1ccc2nc(NC(=O)CCNC(=O)c3ccco3)sc2c1 | – | active: 8.2 µM | – |
| O=C(CSc1nnc(NC2CCCCC2)s1)N1CCOCC1 | – | inconclusive: 0.411 µM [falling, full curve] | – |

Next part.

| SMILES | lipid storage change, negative = inhibition | Potency | outcome |
| --- | --- | --- | --- |
| Cc1ccc(SCc2nc(-c3cccnc3)no2)cc1 | – | inconclusive: 8.2 µM [activator, partial curve] | – |
| CCc1nnc(NC(=O)CCc2c[nH]c3ccccc23)s1 | inconclusive: 50.3% | – | – |
| CCn1c(CCc2ccccc2)n[nH]c1=S | inconclusive: 24.9% | – | – |
| Cc1csc(NC(=O)CCS(=O)(=O)c2ccc(Br)cc2)n1 | – | – | inactive [at 46.1 µM] |
| CC(=O)Nc1c(C(N)=O)oc2ccc(Cl)cc12 | inconclusive: 13.8% | – | – |
| O=C(N/N=C/c1ccccc1)c1ccc(NC(=O)c2ccc(F)cc2)cc1 | – | – | inactive [at 46.1 µM] |
| Cc1nc2c(C)cccc2c2c1CCN2c1ccccc1F | inconclusive: 6.88% | – | – |
| O=C(N1CCOCC1)N1CCN(S(=O)(=O)c2ccc(F)cc2)CC1 | inconclusive: 33.5% | – | – |
| O=C(N/N=C\c1ccc2c(c1)OCO2)c1cncc(Br)c1 | – | inconclusive: 0.291 µM [activator, single point] | – |
| CCc1ccc(NC(=O)C2CCN(S(=O)(=O)c3ccc4c(c3)N(C(C)=O)CCO4)CC2)cc1 | – | inconclusive: 29.1 µM [falling, single point] | – |
| CC(CN1CCN(Cc2ccccc2)CC1)c1ccccc1 (centres undefined) | – | inconclusive: 0.206 µM [activator, full curve, poor fit] | – |
| CC(C)=CCOc1c2ccoc2cc2oc(=O)ccc12 | – | inconclusive: 4.61 µM [activator, partial curve] | – |
| COc1ccc([C@@H]2[C@@H]3C(=O)N(C(C)(C)C)C(=O)[C@@H]3[C@]3(Cc4ccc(Cl)cc4)C(=O)N(c4cccc(Br)c4)C(=O)N23)cc1 | inconclusive: -33.9% | – | – |
| CCOC(=O)C1(Cc2ccccc2)CCN(Cc2cnn(CC)c2)CC1 | inconclusive: 15.1% | – | – |
| O=C(CSc1nnc(NC(=O)c2cccc(F)c2)s1)NCc1ccco1 | inconclusive: -2.14% | – | – |
| O=C1CCCC2=C1C(c1ccccc1)n1c(s/c(=C/c3cccc(F)c3)c1=O)=N2 (centres undefined) | – | inconclusive: 6.51 µM [falling, partial curve] | – |
| Cn1nc(C(=O)OCc2ccc(Br)cc2F)c2ccccc2c1=O | inconclusive: -12.2% | – | – |
| CCC(C)(C)NC(=O)c1sccc1Oc1ccc(F)cc1[N+](=O)[O-] | inconclusive: 42.8% | – | – |
| NNC(=O)CSc1nc(-c2ccccc2)nc2c1CCCC2 | inconclusive: -24.6% | – | – |
| NC1=NC[C@H](Cc2ccc(O)cc2)N1CCc1cccc2ccccc12 | inconclusive: 0.0034% | – | – |
| Cc1cc(C)cc(NC(=O)CSc2nnnn2-c2cccnc2)c1 | – | inconclusive: 16.4 µM [activator, single point] | – |
| COc1ccccc1NC(=S)NC(=O)c1ccc(-c2ccc(Cl)cc2)o1 | inconclusive: -0.92% | – | – |
| CCCCc1ccc(NC(=O)Nc2cccnc2)cc1 | inconclusive: -26.2% | – | – |
| N#C/C(=C/c1ccc(O)c(O)c1)c1nc2ccccc2[nH]1 | – | inconclusive: 29.1 µM [cytotoxic, single point] | – |
